Assay results published in ChEMBL document CHEMBL1949668, “Synthesis of new α aminophosphonate system bearing Indazole moiety and their biological activity” (2012).

Tests used:
Type in all cases: functional
[1] = tested on: Staphylococcus aureus; assay: Antibacterial activity Staphylococcus aureus at 40 ug/disc after 24 hrs by agar disc diffusion method
How it was run: (§1)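 Agar disc diffusion. Strains were grown in Mueller Hinton broth for 18–24 h at 37 °C. The bacterial suspension was spread on Mueller Hinton agar, and dried loaded discs were placed on it once the plates were dry. Gentamycin and […] reference discs carried 40 mcg/disc from 1 mg/ml solutions. Plates were incubated 24 h at 37 °C, and clear inhibition zones were measured in mm.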

[2] = tested on: Escherichia coli; assay: Antibacterial activity Escherichia coli at 40 ug/disc after 24 hrs by agar disc diffusion method; how it was run: as §1
[3] = tested on: Pseudomonas aeruginosa; assay: Antibacterial activity Pseudomonas aeruginosa at 40 ug/disc after 24 hrs by agar disc diffusion method; how it was run: as §1

GENTAMICIN
inhibition zone (IZ) [1]: 7 mm
inhibition zone (IZ) [2]: 11 mm
inhibition zone (IZ) [3]: 17 mm
